## Library screen at single concentrations

Chains of the proteins cited; added tags and fusions are not shown. Residues count along the entry.
UniProt A4I591, 1-473: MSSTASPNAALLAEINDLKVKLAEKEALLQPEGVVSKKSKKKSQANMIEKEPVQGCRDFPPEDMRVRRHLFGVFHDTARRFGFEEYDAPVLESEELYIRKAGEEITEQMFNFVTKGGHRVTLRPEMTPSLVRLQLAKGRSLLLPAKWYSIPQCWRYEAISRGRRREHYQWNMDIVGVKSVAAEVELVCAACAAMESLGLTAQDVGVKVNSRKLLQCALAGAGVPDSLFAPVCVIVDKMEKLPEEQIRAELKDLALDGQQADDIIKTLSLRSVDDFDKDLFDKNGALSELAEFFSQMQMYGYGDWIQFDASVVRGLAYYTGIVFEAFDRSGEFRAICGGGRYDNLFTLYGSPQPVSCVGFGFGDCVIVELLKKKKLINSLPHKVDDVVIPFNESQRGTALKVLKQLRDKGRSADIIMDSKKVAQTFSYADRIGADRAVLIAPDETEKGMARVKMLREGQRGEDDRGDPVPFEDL
UniProt P9WFT3, whole entry: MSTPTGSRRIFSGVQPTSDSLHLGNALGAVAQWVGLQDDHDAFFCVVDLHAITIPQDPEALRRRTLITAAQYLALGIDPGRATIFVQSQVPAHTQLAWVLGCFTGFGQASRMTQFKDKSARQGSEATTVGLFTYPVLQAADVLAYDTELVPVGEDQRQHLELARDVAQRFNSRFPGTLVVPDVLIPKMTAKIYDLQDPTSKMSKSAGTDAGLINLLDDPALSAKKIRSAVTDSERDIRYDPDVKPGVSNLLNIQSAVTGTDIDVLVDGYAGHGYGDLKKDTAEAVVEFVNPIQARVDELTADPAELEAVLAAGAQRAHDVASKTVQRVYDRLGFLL

Measurements from “University of Dundee, Small-Polar-MMV Screening Library” (2021), ChEMBL document CHEMBL3988442.

LiHisRS: 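Histidine-tRNA ligase, Leishmania infantum (UniProt A4I591). Enzyme assay of histidyl-tRNA synthetase; the read-out is not stated. Tested at 30 µM. Direction is inferred from retests: higher values go with stronger inhibition. The assay is labelled LdHisRS but filed under L. infantum. Of about 69,000 compounds tested this way, about 410 (0.6%) reached 50% or more in at least one test.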
T. brucei: 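Whole-parasite assay of Trypanosoma brucei over 72 hours; the read-out is not stated. Concentration: 30 µM. The record gives no direction; compounds that gave an IC50 in retests scored well above the rest, so higher reads as stronger inhibition. Values scatter widely below zero; nearly all retest evidence comes from the higher of the two concentrations used. Size under these conditions: about 64,000 compounds, about 940 of them at 50% or above in at least one test.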
MtTrpRS: 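Tryptophan-tRNA ligase, Mycobacterium tuberculosis (UniProt P9WFT3). Enzyme assay of tryptophanyl-tRNA synthetase; the read-out is not stated. Compounds at 10 µM. Higher most likely means stronger inhibition; the record gives no direction and few retests gave an IC50. Of about 65,000 compounds tested this way, about 64 (0.098%) reached 50% or more in at least one test.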

Values are the deposited “Percent Effect”, in %. How 0% and 100% were set is not recorded. Most values in the screen are low, and negative values occur. Compounds were drawn at random from those tested, without regard to their results. A dash means the value is not listed here; it may have been measured.

| SMILES | LiHisRS | T. brucei | MtTrpRS |
|---|---|---|---|
| `Cc1c[nH]c(CN2CCCCC2CCn2cccn2)c(C)c1=O` (stereo not drawn) | 7.143 | -88.96 | 0.9709 |
| `CCc1nnc2n1CCN(C(=O)C1CCC(n3cccc3)CC1)C2` (stereo not drawn) | 38.55 | 3.519 | -3.608 |
| `O=C(c1ccoc1)N1CCN(Cc2ccccc2F)CC1` | 4.464 | -34.07 | -1.955 |
| `Cc1csc(C2CCCCN2C(=O)CN(C)Cc2ccccc2)n1` (stereo not drawn) | -2.703 | -6.97 | 1.072 |
| `CNC(=O)CC1CC2(CCN(Cc3nccs3)CC2)c2ccccc21.O=C(O)C(F)(F)F` (stereo not drawn) | - | 6.355 | - |
| `Cn1cnnc1C1CCN(C(=O)c2cc3c(s2)CCCC3)CC1` | 9.091 | -19.09 | 83.77 |
| `Cc1nc(C2(NCc3ccc(C#N)cc3F)CCCCC2)no1` | 11.43 | -83.64 | -1.342 |
| `CC(=O)N1N=C(c2ccncc2)OC1C(=O)N(C)CCc1ccccc1` (stereo not drawn) | 0 | -19.39 | - |
| `O=C(c1csc(-c2ncccn2)n1)N1CCCC1Cn1cccn1` (stereo not drawn) | 0.8929 | -8.138 | 12.55 |
| `Fc1cccnc1N1CCCC(c2nccs2)C1` (stereo not drawn) | 3.261 | 2.701 | -1.555 |
| `O=S(=O)(C1CC1)N1CCC2(CC1)CN(Cc1ccccn1)CCO2` | 5.66 | - | - |
| `Cn1ccnc1CC1CCCN(C(=O)NCCOc2cccnc2)C1` (stereo not drawn) | 17.65 | -8.767 | -2.13 |
| `CCCn1nc2c(cc1=O)CN(CCCN1CCCC1=O)CC2` | 52.38 | -19 | -3.052 |
| `c1cn(CCc2c[nH]cn2)c(-c2cc(CN3CCCC3)cs2)n1` | 28.89 | 2.023 | 4.074 |
| `O=C1C(NCc2cccc(O)c2)CCN1Cc1ccccc1` (stereo not drawn) | 19.35 | 9.578 | 1.795 |
| `COC(=O)CNC(=O)c1cn(Cc2ccccc2F)nn1` | -0.8333 | -21.18 | -1.445 |
| `Cc1cc(=O)n2ncnc2n1CC(O)c1cc(F)ccc1F` (stereo not drawn) | 25.71 | 33.88 | 1.589 |
| `N#CCCN(CC(=O)Nc1ccc(Br)cc1Cl)Cc1cccnc1` | 24.73 | -16.78 | 2.004 |
| `Cc1nc[nH]c1CN1CCn2nc(CN3CC[C@H](F)C3)cc2C1` | 11.57 | 20.5 | 0.7323 |
| `[H][C@@]12COC[C@]1(C(=O)NCc1ccco1)CN(Cc1nc(C)cs1)C2` | - | -20.71 | - |
| `CN(Cc1cc(Cl)cc2cccnc12)CC1CCN(CCO)CC1` | 7.853 | 29.64 | 1.06 |
| `Cc1cc(C)n(-c2ccc(CNCc3ccc(C)o3)cn2)n1` | 8.929 | 8.783 | -1.695 |
| `CCC(C)N(Cc1cccnc1)C(=O)c1ncccc1O` (stereo not drawn) | 7.692 | -14.5 | 0.6159 |
| `O=C(CNC(=O)c1c(F)cccc1Cl)Nc1ccc(F)cn1` | 8 | -51.21 | -2.257 |
| `[H][C@@]12CN(Cc3nccs3)C[C@]1([H])CN(C(=O)c1cnc(C)cn1)C2` | - | -50.26 | - |
| `CN(C)Cc1cnc2n1CCN(C(=O)NCc1ccccc1)CC2` | 24.14 | - | 0.1079 |
| `CCC(COC)NC(=O)N1CCC(n2ccc(C(F)(F)F)n2)CC1` (stereo not drawn) | 9.877 | -46.18 | 2.057 |
| `Cc1nc(C)n(CC2CCCN2Cc2ccc(F)cc2C#N)n1` (stereo not drawn) | 17.14 | 4.105 | 0.6717 |
| `O=C(NS(=O)(=O)c1ccc(Cl)cc1F)c1cccc2c1OCCO2` | 14.81 | -32.95 | 5.656 |
| `O=c1c2cccnc2cnn1CC(O)c1cccc(Cl)c1` (stereo not drawn) | 23.53 | -13.17 | 4.658 |
| `N#Cc1ccc(C(=O)N2CCCSCC2CN2CCCC2)cc1` (stereo not drawn) | 6.849 | 6.871 | 2.714 |
| `N#Cc1ccc(NCCCOCC2CCOC2)c(F)c1` (stereo not drawn) | 12.04 | -8.032 | 4.913 |
| `Cn1ccnc1-c1cccc(NC(=O)NCCCO)c1` | 16.35 | -11.96 | 0.3791 |
| `COC1CC2(CCN(Cc3nccn3C)CC2)C1.O=C(O)C(F)(F)F` | - | -146 | - |
| `CN(C)Cc1csc(-c2nccn2Cc2ccc(C(=O)O)cc2)c1` | 16.81 | -1.924 | 4.104 |
| `O=S1(=O)c2cnccc2OC(COc2ccccc2)CN1CC1CC1` (stereo not drawn) | 20.62 | -12.28 | - |
| `CC(=O)N1CCCCC[C@@H]2[C@@H]1[C@H](c1cccc(F)c1)CN2C(C)=O` | 13.04 | - | -3.594 |
| `[H][C@]12CC[C@]([H])(CN(C3Cc4ccccc4C3)C1)N(Cc1nc(C)no1)C2` | - | 16.7 | - |
| `CC(=O)NCCC(Cc1ccccc1)c1ccco1` (stereo not drawn) | 16.67 | - | -2.573 |
| `Cc1ccc(CN2CCc3[nH]nc(C(=O)N(C)C)c3C2)s1.O=C(O)C(F)(F)F.O=C(O)C(F)(F)F` | - | -13.69 | - |
| `Cn1nnc2c1CCN(Cc1ccco1)C2COCc1ccccc1.O=C(O)C(F)(F)F` (stereo not drawn) | - | -151.3 | - |
| `Cc1ccc(NC(=O)N(C)C)c(C(=O)OCC(=O)NC(C)C(C)C)c1` (stereo not drawn) | 16 | -44.52 | 3.389 |
| `Cc1cccc(CNC(=O)CCc2c(C)nc3cc(O)nn3c2C)n1` | 5.217 | -6.815 | -3.505 |
| `CC(CO)CN(Cc1ccccc1)Cc1c[nH]cn1` (stereo not drawn) | 7.692 | -3.011 | -0.3079 |
| `O=C(O)C(F)(F)F.[H][C@@]12COC[C@]1([H])[C@H](NC(=O)c1cscn1)CN2c1ncc(CC)cn1` | - | -28.94 | - |
| `Cc1cccc(CN2C[C@@H]3OCCN(c4cnccn4)[C@@H]3C2)n1` | 15.79 | - | 4.509 |
| `COc1cccc(C(=O)Nc2cc(CC(C)C)nn2C)c1` | 13.7 | 29.92 | 3.277 |
| `Cc1ncsc1CCN(C)C(=O)C(c1cccnc1)N1CCOCC1` (stereo not drawn) | 21.49 | 2.515 | 2.189 |
| `Cc1n[nH]c(C2CN(CCCOc3cccc(Cl)c3)CCO2)n1` (stereo not drawn) | 0 | -23.44 | 1.49 |
| `CCC[C@H]1CN(S(=O)(=O)c2cc(C)ccc2F)C[C@@H]1N` | 16.13 | 3.745 | 1.065 |
| `CNC(=O)C(CC(C)C)NC(=O)c1cccc(-c2nc(C)cs2)c1` (stereo not drawn) | 21.92 | 71.45 | 1.3 |
| `Cn1ccnc1SCc1nc(C(C)(C)NC(=O)OC(C)(C)C)no1` | 14.56 | 17.25 | 0.1776 |
| `COCC(=O)N1CCc2ccc(=O)n(CC3CC3)c2CC1` | 19.23 | 2.75 | - |
| `CCn1ncc(-c2cc(C(F)F)nc3sc(C(N)=O)c(N)c23)c1C` | -33.33 | 26.92 | 5.602 |
| `CCOC(=O)CC(NC(=O)c1cn(Cc2ccccc2F)nn1)C(C)C` (stereo not drawn) | 2.5 | -20.27 | -2.683 |
| `CCOCCn1nc(C)cc1C(=O)N1CC[C@](C)(O)C(C)(C)C1` | 15.2 | -22.86 | 2.971 |
| `COCCC(=O)NCc1ccc(-c2ncncc2C(=O)N(C)C)cc1` | 4.196 | -0.772 | 6.984 |
| `O=C(NCCOCC1CC1)Nc1ccc(F)cc1` | 20.18 | 14.96 | -1.556 |
| `CNc1ccc(C)cc1C(=O)N1CCCC2(CCNC2)C1` (stereo not drawn) | 3.333 | -21.51 | 2.21 |
| `Cc1cc(N2CCOCC2)ccc1NC(C)c1nc(C(C)(C)C)no1` (stereo not drawn) | 28.26 | -35.35 | 1.834 |
| `Cc1ccc(C(=O)N2CCN(Cc3cccs3)CC2)c(=O)[nH]1` | 21.3 | 1.391 | -3.209 |
| `Cl.O=C(Nc1cccc(CNCc2csc(Br)c2)c1)C1CC1` | - | 33.48 | - |
| `CN(CC1CN(CCn2cc(C#N)cn2)CCO1)c1cccnn1` (stereo not drawn) | 10.32 | -65.94 | -1.867 |
| `Cc1nc(C)n(CC2CCCN2Cc2nc(-c3ccco3)no2)n1` (stereo not drawn) | 1.786 | -5.332 | -5.838 |
| `COc1cc(F)cc(CNC(=O)Nc2ccn(CC(F)F)n2)c1` | 9.859 | -42.6 | 4.339 |
| `O=C(N[C@H]1COC[C@@H]1N1CCCC1)c1csc(Cc2ccccc2)n1` | 29.41 | -15.6 | 4.996 |

The first 8 entries again:

- Cc1c[nH]c(CN2CCCCC2CCn2cccn2)c(C)c1=O (stereo not drawn) | LiHisRS: 7.143%; T. brucei: -88.96%; MtTrpRS: 0.9709%
- CCc1nnc2n1CCN(C(=O)C1CCC(n3cccc3)CC1)C2 (stereo not drawn) | LiHisRS: 38.55%; T. brucei: 3.519%; MtTrpRS: -3.608%
- O=C(c1ccoc1)N1CCN(Cc2ccccc2F)CC1 | LiHisRS: 4.464%; T. brucei: -34.07%; MtTrpRS: -1.955%
- Cc1csc(C2CCCCN2C(=O)CN(C)Cc2ccccc2)n1 (stereo not drawn) | LiHisRS: -2.703%; T. brucei: -6.97%; MtTrpRS: 1.072%
- CNC(=O)CC1CC2(CCN(Cc3nccs3)CC2)c2ccccc21.O=C(O)C(F)(F)F (stereo not drawn) | T. brucei: 6.355%
- Cn1cnnc1C1CCN(C(=O)c2cc3c(s2)CCCC3)CC1 | LiHisRS: 9.091%; T. brucei: -19.09%; MtTrpRS: 83.77%
- Cc1nc(C2(NCc3ccc(C#N)cc3F)CCCCC2)no1 | LiHisRS: 11.43%; T. brucei: -83.64%; MtTrpRS: -1.342%
- CC(=O)N1N=C(c2ccncc2)OC1C(=O)N(C)CCc1ccccc1 (stereo not drawn) | LiHisRS: 0%; T. brucei: -19.39%